Some of the results follow.
What follows are compounds tested on T1, CTL2-GFP (C. trachomatis L2/434/Bu, GFP-expressing). Conditions: bulk GFP, single well; 28.5 h, 10 µM; inhibitor.
T1 construct: L2/434/Bu, GFP-expressing
Set-up: species or system HeLa; Intracellular C. trachomatis growth in HeLa cells, bulk GFP fluorescence relative to DMSO
With `c1ccc(C(Oc2nccnc2-c2cccs2)c2ccccc2)cc1` [CBK107061] the “% of control remaining” value was 94.5574%.
`CC(=O)c1ccc(N2CCN(Cc3cc(C(C)(C)C)c(O)c(C(C)(C)C)c3)CC2)cc1` [CBK261749] was tested, and the “% of control remaining” value was 103.787%.
For `O=C(C1=C(O)C(=O)N(CCCN2CCOCC2)C1c1cccnc1)c1cc2ccccc2o1` (stereo not drawn) [CBK266147], the “% of control remaining” value was 127.066%.
With `c1ccc(SCCN2CCOCC2)cc1` [CBK027679] the “% of control remaining” value was 129.005%.
With `c1ccc2cc(OCc3ccc(-c4nccnc4-c4nnn[nH]4)cc3)ccc2c1` [CBK050818] the “% of control remaining” value was 100%.
With `O=C(CC(C(=O)O)c1c[nH]c2ccccc12)c1ccc(Cl)cc1` (stereo not drawn) [CBK286620] the “% of control remaining” value was 135.19%.
In the case of `COc1ccc(/C=C(\C)C(=O)Nc2cc3ccccc3c(N3CCNCC3)n2)cc1OC` [CBK038937T], the “% of control remaining” value is reported as 103.12%.
With `Cc1c(C(C)NC(=O)C2C3CCC(O3)C2C(=O)O)cnn1C` (stereo not drawn) [CBK286887] the “% of control remaining” value was 111.367%.
In the case of `CC(=O)Nc1c(C#N)cnn1C` [CBK046332], the “% of control remaining” value is reported as 110.635%.
With `O=C(Nc1ccc2oc(-c3cccnc3)nc2c1)c1ccc(Br)o1` [CBK263436] the “% of control remaining” value was 90.5819%.
With `O=C(Nc1cccc(-c2nc3ncccc3o2)c1)c1cccnc1Cl` [CBK058695] the “% of control remaining” value was 124.1%.
For `CCOc1ccccc1NC(=O)CC1Sc2ccc(C(F)(F)F)cc2NC1=O` (stereo not drawn) [CBK263659], the “% of control remaining” value was 84.5684%.
With `O=C1NC2(CCC(=O)N(Cc3ccccc3)CC2)Oc2ccccc21` (stereo not drawn) [CBK284438] the “% of control remaining” value was 128.757%.
For `Cc1cccc(OCC2CCCN(C(=O)Cn3cc(C)cn3)C2)c1` (stereo not drawn) [CBK281531], the “% of control remaining” value was 125.494%.
In the case of `CCCCOC(=O)CCn1c(=S)oc2ccccc21` [CBK019181], the “% of control remaining” value is reported as 156.179%.
For `Cc1ccc(-c2csc3ncnc(SCc4nc5ccccc5[nH]4)c23)cc1` [CBK267590], the “% of control remaining” value was 139.842%.
`O=C(NC(c1ccc(Cl)cc1)c1cnccn1)C1CCN(Cc2ccc(Oc3ccccc3)cc2)CC1` (stereo not drawn) [CBK148023] was tested, and the “% of control remaining” value was 69.3943%.
For `O=C(Cc1ccc(-c2ccccc2)cc1)NCc1nnc(-c2cccs2)o1` [CBK286295], the “% of control remaining” value was 114.581%.
For `COc1ccc(/C=N/NC(=O)Cn2nnnc2N)cc1` [CBK262122], the “% of control remaining” value was 118.366%.
In the case of `COc1cc(NC(=O)NC(=O)C2CCN(C(C)=O)CC2)cc(OC)c1OC` [CBK034831], the “% of control remaining” value is reported as 104.939%.
`CCOCCCNC(=O)c1cnn2c(C)c(Cc3cccc(C#N)c3)c(C)nc12` [CBK162081] was tested, and the “% of control remaining” value was 96.9656%.
With `CC(=O)Nc1cccc(-c2ccc(Nc3cccc(N(C)C)c3)nc2)c1` [CBK036829] the “% of control remaining” value was 177.624%.
With `COc1cccc(C(=O)N2CCN(C(=O)Nc3ccsc3)CC2)c1` [CBK154782] the “% of control remaining” value was 105.132%.
In the case of `COc1ccc(OC)c(NC(=O)CSc2nnc(-c3ccc(N)cc3)n2C)c1` [CBK265872], the “% of control remaining” value is reported as 125.683%.
With `COc1cc([N+](=O)[O-])cc(CN2CCN(CCO)CC2)c1O` [CBK261851] the “% of control remaining” value was 113.229%.
With `CCN(CC)C(=O)c1c(NS(=O)(=O)c2ccc(C)cc2)sc2c1CCCC2` [CBK028627] the “% of control remaining” value was 99.1287%.
With `O=C(OCc1ccc(Cl)cc1)c1ccc2c(c1)C(=O)N(c1cccc([N+](=O)[O-])c1)C2=O` [CBK265188] the “% of control remaining” value was 108.646%.
With `Cc1cc(F)c(S(=O)(=O)NCCN2CCOCC2)cc1NC(=O)c1ccc(Br)o1` [CBK059091C] the “% of control remaining” value was 128.446%.
For `CC(C)N1CCCC2(CCN(C(=O)Cc3c[nH]c(=O)n(C)c3=O)C2)C1=O` (stereo not drawn) [CBK307115], the “% of control remaining” value was 108.503%.
In the case of `Cc1ccc(CNC(=O)NCCc2cccs2)cc1` [CBK044960], the “% of control remaining” value is reported as 87.0795%.
For `Cc1noc(NS(=O)(=O)c2ccc(N/C=C\C(=O)c3cccnc3)cc2)c1C` [CBK264285], the “% of control remaining” value was 11.6311%.
For `Nc1nnc(-c2ccc(Cl)cc2)[nH]1` [CBK025436], the “% of control remaining” value was 118.025%.
`COc1cccc(NC(=O)O[C@@H]2CC[C@]3(C)C(CC[C@H]4OC(=O)C[C@H]43)[C@]2(C)CO)c1` (stereo partly drawn) [CBK289576] was tested, and the “% of control remaining” value was 141.244%.
With `O=C(CN1C2CCC1CC(O)(c1ccco1)C2)N1CCCCC1` (stereo not drawn) [CBK284093] the “% of control remaining” value was 131.407%.
In the case of `CCOC(=O)CNS(=O)(=O)c1ccc(F)cc1` [CBK034442], the “% of control remaining” value is reported as 90.3527%.
`CCc1c(C(=O)NCc2cccnc2-n2cncn2)cnn1-c1ccc(OC)nn1` [CBK298309] was tested, and the “% of control remaining” value was 132.013%.
In the case of `COc1ccnc(N2CCN(C(=O)C3(C#N)CCCCC3)CC2)n1` [CBK305739], the “% of control remaining” value is reported as 137.857%.
In the case of `CCSc1c(C)cnc2c1c(=O)n(C)c(=O)n2C` [CBK287748], the “% of control remaining” value is reported as 97.2706%.
For `COc1ccc(-c2cnc(NCC3CC3)c(C(=O)N(C)CCN(C)C)c2)cc1` [CBK076338], the “% of control remaining” value was 107.504%.
`CN(C)c1cccc(-c2nc(-c3ccco3)cnc2N)c1` [CBK063970] was tested, and the “% of control remaining” value was 191.8%.
For `O=C(O)/C=C/c1ccc(CNS(=O)(=O)c2ccccc2)o1` [CBK286549], the “% of control remaining” value was 102.456%.
With `O=C(CNC(=O)C1CC=CCC1C(=O)O)Nc1ccc(N2CCCCCC2)cc1` (stereo not drawn) [CBK295603] the “% of control remaining” value was 121.893%.
With `O=C(NCC1(c2cccc(Br)c2)CCOCC1)C1CC(O)CN1` (stereo not drawn) [CBK304257] the “% of control remaining” value was 113.125%.
`O=C(NC1CCCCC1)c1s/c(=N/O)nnc1Nc1ccccc1` [CBK022275] was tested, and the “% of control remaining” value was 121.604%.
`COc1cc(OC)nc(CC(=O)O)n1` [CBK103537] was tested, and the “% of control remaining” value was 100.067%.
`CN(Cc1ccco1)C(=O)c1cccc(NC(=O)C2CC2)c1` [CBK304857] was tested, and the “% of control remaining” value was 119.566%.
`COc1cc(C)c(C)cc1S(=O)(=O)n1cnc2ccccc21` [CBK287578] was tested, and the “% of control remaining” value was 94.9433%.
For `CCC(=O)N1CCc2cc(C(O)CN3CCCC3)ccc21` (stereo not drawn) [CBK283110], the “% of control remaining” value was 90.6431%.
With `Cc1ccc(C(=O)NCCCNc2ccc(Cl)cc2[N+](=O)[O-])cc1` [CBK262334] the “% of control remaining” value was 99.0866%.
In the case of `Clc1ccc2nc(SCc3csc(Nc4ccccc4)n3)oc2c1` [CBK268269], the “% of control remaining” value is reported as 121.75%.
In the case of `Cn1c(CNc2ccccc2[N+](=O)[O-])c(C#N)c2ccccc21` [CBK115324], the “% of control remaining” value is reported as 100.979%.

Reference: article PMC12040169 (PLOS Biology, 2025)
